Measured values as given in paper doi:10.1101/740472.
No constants are given. Whether binding was seen depends on the method and setting. Binding seen in cells or lysates may run through a third protein. These calls come from enrichment with a bait or labelling near it, and not all partners need be listed. Where a sequence is shown, tags or fusion partners need not be part of it.

Chains of the proteins cited; added tags and fusions are not shown. Residues count along the entry.
UniProt O75015, residues 17-200: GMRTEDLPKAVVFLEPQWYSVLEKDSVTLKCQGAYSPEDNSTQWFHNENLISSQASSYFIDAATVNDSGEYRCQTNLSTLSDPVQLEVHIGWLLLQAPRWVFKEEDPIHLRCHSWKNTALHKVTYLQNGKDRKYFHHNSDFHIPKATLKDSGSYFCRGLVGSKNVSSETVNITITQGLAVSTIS
UniProt Q14517, residues 22-4588: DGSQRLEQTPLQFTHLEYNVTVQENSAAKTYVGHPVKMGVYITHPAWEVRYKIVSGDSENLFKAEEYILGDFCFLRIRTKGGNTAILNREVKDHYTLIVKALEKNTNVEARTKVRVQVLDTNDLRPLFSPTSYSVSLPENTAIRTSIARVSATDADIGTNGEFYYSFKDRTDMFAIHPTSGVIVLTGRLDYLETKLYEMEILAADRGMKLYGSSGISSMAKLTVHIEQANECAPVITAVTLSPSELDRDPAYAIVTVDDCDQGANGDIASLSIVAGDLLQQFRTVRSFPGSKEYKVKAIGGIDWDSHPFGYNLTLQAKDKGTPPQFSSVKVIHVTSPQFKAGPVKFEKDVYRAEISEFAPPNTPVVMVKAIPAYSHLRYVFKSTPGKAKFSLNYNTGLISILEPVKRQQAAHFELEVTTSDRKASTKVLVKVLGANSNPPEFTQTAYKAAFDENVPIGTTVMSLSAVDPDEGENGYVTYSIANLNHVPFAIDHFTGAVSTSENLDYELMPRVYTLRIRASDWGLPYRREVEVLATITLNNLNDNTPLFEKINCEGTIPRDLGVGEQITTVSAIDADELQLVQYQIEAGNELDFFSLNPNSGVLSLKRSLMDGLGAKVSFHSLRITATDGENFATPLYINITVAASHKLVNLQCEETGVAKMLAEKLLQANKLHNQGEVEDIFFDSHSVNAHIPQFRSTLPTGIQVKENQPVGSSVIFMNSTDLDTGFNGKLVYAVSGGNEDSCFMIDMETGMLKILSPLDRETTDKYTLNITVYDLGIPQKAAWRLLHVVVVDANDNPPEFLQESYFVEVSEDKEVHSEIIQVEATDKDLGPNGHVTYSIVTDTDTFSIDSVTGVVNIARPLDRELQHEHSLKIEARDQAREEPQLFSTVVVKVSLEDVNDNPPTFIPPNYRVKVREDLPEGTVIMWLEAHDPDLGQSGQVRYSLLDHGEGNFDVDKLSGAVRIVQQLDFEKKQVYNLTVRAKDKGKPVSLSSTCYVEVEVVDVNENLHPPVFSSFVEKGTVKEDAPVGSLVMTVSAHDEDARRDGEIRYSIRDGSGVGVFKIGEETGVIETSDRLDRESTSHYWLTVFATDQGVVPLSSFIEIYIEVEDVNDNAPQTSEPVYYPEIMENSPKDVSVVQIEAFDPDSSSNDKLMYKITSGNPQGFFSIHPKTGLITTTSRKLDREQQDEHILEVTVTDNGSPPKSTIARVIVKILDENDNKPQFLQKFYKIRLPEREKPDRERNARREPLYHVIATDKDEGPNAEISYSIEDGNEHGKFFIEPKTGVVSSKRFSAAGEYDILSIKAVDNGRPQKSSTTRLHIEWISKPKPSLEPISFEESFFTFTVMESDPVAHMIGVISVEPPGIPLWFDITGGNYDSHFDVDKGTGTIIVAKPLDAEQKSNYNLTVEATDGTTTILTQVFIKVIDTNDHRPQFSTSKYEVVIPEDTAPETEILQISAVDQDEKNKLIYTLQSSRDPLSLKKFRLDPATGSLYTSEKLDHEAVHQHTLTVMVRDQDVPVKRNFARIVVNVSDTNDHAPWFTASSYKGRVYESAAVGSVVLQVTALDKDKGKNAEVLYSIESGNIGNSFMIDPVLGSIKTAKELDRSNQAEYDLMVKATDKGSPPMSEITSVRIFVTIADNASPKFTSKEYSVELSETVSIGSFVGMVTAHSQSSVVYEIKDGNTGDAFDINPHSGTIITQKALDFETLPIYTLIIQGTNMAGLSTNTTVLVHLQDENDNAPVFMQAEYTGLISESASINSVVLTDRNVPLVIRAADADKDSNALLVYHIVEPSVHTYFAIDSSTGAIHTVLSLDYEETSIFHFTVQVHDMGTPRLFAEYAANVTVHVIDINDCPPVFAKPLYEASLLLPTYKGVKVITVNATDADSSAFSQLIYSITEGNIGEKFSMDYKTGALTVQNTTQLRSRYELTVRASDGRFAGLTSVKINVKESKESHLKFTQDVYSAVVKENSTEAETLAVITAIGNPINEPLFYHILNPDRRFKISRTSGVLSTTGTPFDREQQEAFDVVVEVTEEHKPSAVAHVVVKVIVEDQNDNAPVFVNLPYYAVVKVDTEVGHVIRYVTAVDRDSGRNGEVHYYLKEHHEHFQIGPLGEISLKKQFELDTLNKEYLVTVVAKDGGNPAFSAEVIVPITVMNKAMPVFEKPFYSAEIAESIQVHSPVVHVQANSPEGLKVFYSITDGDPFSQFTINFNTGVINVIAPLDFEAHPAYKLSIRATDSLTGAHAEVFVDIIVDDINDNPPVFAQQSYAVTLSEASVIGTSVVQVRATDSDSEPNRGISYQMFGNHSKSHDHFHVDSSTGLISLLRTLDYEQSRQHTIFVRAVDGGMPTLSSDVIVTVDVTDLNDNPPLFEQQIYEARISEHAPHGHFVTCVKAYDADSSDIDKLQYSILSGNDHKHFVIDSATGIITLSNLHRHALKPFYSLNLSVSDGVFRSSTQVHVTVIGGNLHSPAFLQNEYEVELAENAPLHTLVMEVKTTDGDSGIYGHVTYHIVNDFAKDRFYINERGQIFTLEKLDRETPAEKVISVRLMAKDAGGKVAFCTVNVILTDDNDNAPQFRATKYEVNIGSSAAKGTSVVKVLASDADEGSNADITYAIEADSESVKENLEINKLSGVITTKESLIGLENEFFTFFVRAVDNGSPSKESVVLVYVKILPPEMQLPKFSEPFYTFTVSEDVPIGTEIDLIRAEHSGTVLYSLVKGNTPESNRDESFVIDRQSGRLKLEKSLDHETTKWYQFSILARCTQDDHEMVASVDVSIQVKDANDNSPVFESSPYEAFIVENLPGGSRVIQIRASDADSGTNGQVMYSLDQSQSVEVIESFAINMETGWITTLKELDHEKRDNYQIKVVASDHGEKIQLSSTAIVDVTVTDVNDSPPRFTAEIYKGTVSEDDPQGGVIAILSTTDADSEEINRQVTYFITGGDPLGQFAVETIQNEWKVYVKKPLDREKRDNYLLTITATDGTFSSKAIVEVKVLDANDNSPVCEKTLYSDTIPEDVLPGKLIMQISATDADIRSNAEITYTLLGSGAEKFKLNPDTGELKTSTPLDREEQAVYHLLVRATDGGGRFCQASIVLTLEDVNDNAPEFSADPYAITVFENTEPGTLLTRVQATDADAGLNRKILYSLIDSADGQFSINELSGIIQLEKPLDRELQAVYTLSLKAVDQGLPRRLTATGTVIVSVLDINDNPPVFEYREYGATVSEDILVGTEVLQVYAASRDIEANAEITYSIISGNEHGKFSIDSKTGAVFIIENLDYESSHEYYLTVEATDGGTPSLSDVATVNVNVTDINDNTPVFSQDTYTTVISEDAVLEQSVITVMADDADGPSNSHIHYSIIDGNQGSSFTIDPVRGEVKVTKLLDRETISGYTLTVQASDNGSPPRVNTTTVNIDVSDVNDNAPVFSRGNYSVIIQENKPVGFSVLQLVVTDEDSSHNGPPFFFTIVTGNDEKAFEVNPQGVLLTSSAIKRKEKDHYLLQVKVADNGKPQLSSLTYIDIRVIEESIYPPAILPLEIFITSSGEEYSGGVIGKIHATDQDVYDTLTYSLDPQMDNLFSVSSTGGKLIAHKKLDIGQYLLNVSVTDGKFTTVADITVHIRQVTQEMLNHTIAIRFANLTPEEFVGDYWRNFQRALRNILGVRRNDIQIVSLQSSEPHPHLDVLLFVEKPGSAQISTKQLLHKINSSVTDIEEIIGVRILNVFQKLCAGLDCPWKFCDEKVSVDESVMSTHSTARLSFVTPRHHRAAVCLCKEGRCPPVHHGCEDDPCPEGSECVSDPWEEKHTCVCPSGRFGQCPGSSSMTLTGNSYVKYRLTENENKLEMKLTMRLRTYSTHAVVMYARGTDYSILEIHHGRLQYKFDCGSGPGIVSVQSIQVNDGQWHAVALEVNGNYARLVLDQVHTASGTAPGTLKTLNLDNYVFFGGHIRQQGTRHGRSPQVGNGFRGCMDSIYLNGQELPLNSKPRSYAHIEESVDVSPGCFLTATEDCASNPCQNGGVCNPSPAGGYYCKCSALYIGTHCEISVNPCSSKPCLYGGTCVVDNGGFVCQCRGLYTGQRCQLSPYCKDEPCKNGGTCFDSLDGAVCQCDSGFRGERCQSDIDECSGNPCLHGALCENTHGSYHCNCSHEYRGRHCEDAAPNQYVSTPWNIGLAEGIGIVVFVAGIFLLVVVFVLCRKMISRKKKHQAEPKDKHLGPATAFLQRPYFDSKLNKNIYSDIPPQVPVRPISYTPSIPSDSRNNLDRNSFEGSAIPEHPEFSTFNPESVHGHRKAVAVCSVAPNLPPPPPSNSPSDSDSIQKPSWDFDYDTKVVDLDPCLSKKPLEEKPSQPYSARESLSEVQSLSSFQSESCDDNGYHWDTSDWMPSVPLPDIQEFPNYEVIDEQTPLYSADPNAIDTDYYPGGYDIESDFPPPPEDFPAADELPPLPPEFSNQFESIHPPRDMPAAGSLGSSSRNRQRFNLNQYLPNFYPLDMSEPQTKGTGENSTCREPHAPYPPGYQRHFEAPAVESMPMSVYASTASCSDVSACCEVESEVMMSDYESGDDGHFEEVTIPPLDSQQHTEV

T1: HA-tagged human ISLR (hISLR-HA) (human) (UniProt O14498)
T1 sequence: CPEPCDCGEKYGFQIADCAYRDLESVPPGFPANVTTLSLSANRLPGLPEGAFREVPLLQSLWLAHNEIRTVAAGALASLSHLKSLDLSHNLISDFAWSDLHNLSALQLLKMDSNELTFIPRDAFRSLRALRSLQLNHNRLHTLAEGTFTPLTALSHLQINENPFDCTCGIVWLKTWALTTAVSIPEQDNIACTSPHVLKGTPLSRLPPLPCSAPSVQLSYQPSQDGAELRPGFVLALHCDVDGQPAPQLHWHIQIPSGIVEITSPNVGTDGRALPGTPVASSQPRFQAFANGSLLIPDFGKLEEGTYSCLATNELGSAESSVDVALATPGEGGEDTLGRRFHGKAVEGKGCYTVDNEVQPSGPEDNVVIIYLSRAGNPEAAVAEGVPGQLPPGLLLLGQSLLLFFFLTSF

B1: MAGT1 (protein, UniProt Q9H0U3 30-335)
chain: QRKKEMVLSEKVSQLMEWTNKRPVIRMNGDKFRRLVKAPPRNYSVIVMFTALQLHRQCVVCKQADEEFQILANSWRYSSAFTNRIFFAMVDFDEGSDVFQMLNMNSAPTFINFPAKGKPKRGDTYELQVRGFSAEQIARWIADRTDVNIRVIRPPNYAGPLMLGLLLAVIGGLVYLRRSNMEFLFNKTGWAFAALCFVLAMTSGQMWNHIRGPPYAHKNPHTGHVNYIHGSSQAQFVAETHIVLLFNGGVTLGMVLLCEAATSDMDIGKRKIMCVAGIGLVVLFFSWMLSIFRSKYHGYPYSFLMS

Molecular target: T1, HA-tagged human ISLR (hISLR-HA) (human)
Experiment: affinity purification with mass spectrometry

binding | Molecule
binds | FCGR3B (from UniProt O75015 17-200)
binds | FAT1 (transmembrane protocadherin), endogenous (from UniProt Q14517 22-4588)
binds | B1
